Data: PubChem BioAssay AID588590 (National Center for Advancing Translational Sciences (NCATS), 2011)
“And” between values parts separate entries of the source, which are not always exact repeats. Equal values may be shown once. Hit rate of the full screen: of about 390,000 compounds, about 4,000 (1%) were called active. The inconclusive results got no clear call from the source; some entries with a clear call stand among them for comparison. The call rests on the fitted dose curve; in most records, active means well fitted inhibition curve with a large enough effect; inconclusive means small, poorly fitted or top-dose-only effect, or another doubt; inactive means no such curve, though single readings can be large or run the other way. Potencies beside an inconclusive call are fits to weak or partial responses and may not hold up.

Protein sequences, listed by entry. Tags and fused reporters are not part of them. Lines headed by an entry give the natural chain unless they say otherwise; changes in a name come on top.
UniProt Q9UNA4: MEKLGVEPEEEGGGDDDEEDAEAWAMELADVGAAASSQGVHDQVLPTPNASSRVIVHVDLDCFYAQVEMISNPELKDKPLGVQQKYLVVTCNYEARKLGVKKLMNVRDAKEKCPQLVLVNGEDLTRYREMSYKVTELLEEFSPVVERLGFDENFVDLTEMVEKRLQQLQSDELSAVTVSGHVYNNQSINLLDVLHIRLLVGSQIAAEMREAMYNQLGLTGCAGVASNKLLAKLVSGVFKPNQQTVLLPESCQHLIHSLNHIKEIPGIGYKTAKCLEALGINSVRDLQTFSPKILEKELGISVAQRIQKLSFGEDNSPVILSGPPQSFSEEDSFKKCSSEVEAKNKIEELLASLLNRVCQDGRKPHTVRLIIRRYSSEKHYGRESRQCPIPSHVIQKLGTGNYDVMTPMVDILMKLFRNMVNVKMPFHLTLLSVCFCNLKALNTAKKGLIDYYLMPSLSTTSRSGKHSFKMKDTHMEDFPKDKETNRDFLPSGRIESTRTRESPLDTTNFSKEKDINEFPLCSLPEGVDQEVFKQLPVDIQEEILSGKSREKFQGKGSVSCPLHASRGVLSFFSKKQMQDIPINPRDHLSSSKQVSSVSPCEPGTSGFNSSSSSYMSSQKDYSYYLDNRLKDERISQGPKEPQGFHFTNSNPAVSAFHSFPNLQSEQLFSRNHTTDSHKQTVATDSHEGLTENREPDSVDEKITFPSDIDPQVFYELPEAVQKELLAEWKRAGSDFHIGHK

Biological target: DNA polymerase iota (Homo sapiens) (UniProt Q9UNA4)
Assay: qHTS for Inhibitors of Polymerase Iota
Details: Pol iota fluorescent replication assay, 10 min; series mostly up to 115 µM
Source text: DNA polymerases, such as Pol iota, are specifically involved in DNA repair. Pol iota specifically plays an important role in translesion synthesis, where the normal high-fidelity DNA polymerases cannot proceed and DNA synthesis stalls. […] Thus, while pol eta's (and most likely iota's) normal function is to protect humans against the deleterious consequences of DNA damage, under certain conditions they can have deleterious effects on human health. As a consequence, we propose to utilize a high throughput replication assay to identify small molecule inhibitors of pol iota.
In a collaboration between the National Institute of Child Health & Human Development (NICHD) and NIH Chemical Genomics Center, a high-throughput, fluorescent screen was developed to screen the NIH Molecular Libraries Small Molecule Repository (MLSMR). This screen is used to identify inhibitors of pol iota.
NIH Chemical Genomics Center [NCGC]
NIH Molecular Libraries Probe Centers Network [MLPCN]
Assay Submitter (PI): Roger Woodgate, NICHD)
Three microliters of reagents (buffer in column 3 and 4 as negative control and 10 nM Pol iota in columns 1, 2, and 5-48) will be dispensed into 1,536-well black solid-bottomed plate. Compounds (23 nL) will be transferred via Kalypsys pin tool equipped with 1536-pin array. The plates will then be incubated for 15 min at room temperature, and 1 µL substrate (50 nM final concentration) will be added to start the reaction and kinetically read twice at 0 min and 10 min on the Viewlux reader.
Potency means the concentration at half of the fitted maximal effect.

| Structure (SMILES) | Potency |
| --- | --- |
| N[C@@H](Cc1c[nH]c2ccccc12)c1nnc(SCc2ccc(F)cc2)o1 | inconclusive: 100 µM [inhibitor, single point] |
| O=C1NC(=O)[C@]2(Cc3ccccc3N3CCN(c4ccccc4)CC32)C(=O)N1Cc1ccccc1 (stereo partly specified) | inconclusive: 15.8 µM [inhibitor, partial curve, poor fit] |
| CCN1C(=O)N(CC)C(=O)C2(Cc3ccccc3N3CCN(c4ccccc4)CC32)C1=O (stereo unspecified) | inconclusive: 22.4 µM [inhibitor, single point] |
| CC/C(=N\NC(=O)c1ccccc1)c1c(O)n(Cc2ccccc2)c(=O)[nH]c1=O | inactive |
| CC(C)(C)c1csc(NC(=O)Nc2ccccc2)n1 | inactive |
| Oc1cc2c(cc1O)[C@H]1c3ccccc3CNC1CC2 (stereo partly specified) | inconclusive: 15.8 µM [inhibitor, single point] |
| O=C1NC(=S)N(c2ccccc2F)C(=O)/C1=C\c1cccs1 | inconclusive: 20 µM [inhibitor, partial curve, poor fit] |
| CC1=NN=C(c2ccc(N)cc2)c2cc3c(cc2C1)OCO3 | inconclusive: 28.2 µM [inhibitor, partial curve, poor fit] |
| COc1ccc2cc1Oc1ccc(cc1)C[C@H]1c3cc(c(OC)cc3CCN1C)Oc1c(OC)c(OC)cc3c1[C@H](C2)N(C)CC3 | inactive |
| O=C(O)c1cc[c]([Hg][Cl])cc1 | active: 1.26 µM and active: 1.78 µM |
| COc1ccc(OC)c(N=Cc2c(O)[nH]c(=O)[nH]c2=O)c1 | inactive |
| O=[N+]([O-])c1ccc(N2CCNCC2)cc1N1CCCCC1 | inconclusive: 3.98 µM [inhibitor, full curve, poor fit] |
| O=C1NC(=O)N(c2ccc3c(c2)OCO3)C(=O)/C1=C/c1ccc(N2CCCCC2)o1 | inconclusive: 3.55 µM [inhibitor, partial curve, poor fit] |
| COc1cc(CN2CC=C(c3ccc(F)cc3)CC2)cc(OC)c1 | inconclusive: 39.8 µM [inhibitor, partial curve, poor fit] |
| COc1ccc(C=C2C(=O)NC(=S)NC2=O)cc1OC | inconclusive: 17.8 µM [inhibitor, partial curve, poor fit] |
| COc1ccccc1N1CCN(Cc2c(F)cccc2F)CC1 | inconclusive: 15.8 µM [inhibitor, full curve] |
| Cc1c2cnn(CC(=O)N3CCC4(CC3)OCCO4)c(=O)c2c(C)n1Cc1cccc(Cl)c1 | inactive |
| C[C@H]1COC2=C1C(=O)C(=O)c1c2ccc2c1CCCC2(C)C | active: 22.4 µM |
| Clc1cccc(Cl)c1CN1CCN(c2ccccc2)CC1 | inconclusive: 50.1 µM [inhibitor, partial curve, poor fit] |
| NC(=S)c1cn(C2OC(CO)C(O)C2O)c2ncnc(N)c12 (stereo unspecified) | inconclusive: 44.7 µM [inhibitor, single point] |
| CCCCCn1c(=O)c(C(=O)Nc2ccccn2)c(O)c2ccccc21 | inconclusive: 14.1 µM [inhibitor, partial curve, poor fit] |

Taken from above.
Under Potency, `COc1ccccc1N1CCN(Cc2c(F)cccc2F)CC1` is entered as inconclusive: 15.8 µM [inhibitor, full curve]
Under Potency, `Oc1cc2c(cc1O)[C@H]1c3ccccc3CNC1CC2` (stereo partly specified) is entered as inconclusive: 15.8 µM [inhibitor, single point]
Under Potency, `C[C@H]1COC2=C1C(=O)C(=O)c1c2ccc2c1CCCC2(C)C` is entered as active: 22.4 µM

Later entries.

| Structure (SMILES) | Potency |
| --- | --- |
| C/C(O)=C(\C#N)C(=O)Nc1cc(Br)ccc1Br | inconclusive: 35.5 µM [inhibitor, partial curve, poor fit] |
| COC1=CC(=O)OC(CCc2ccc3c(c2)OCO3)C1 (stereo unspecified) | inconclusive: 56.2 µM [inhibitor, single point] |
| O=c1[nH]c(=S)n(Cc2ccco2)c(O)c1C=NCc1cccs1 | active: 22.4 µM |
| O=c1c2ccccc2nc(-c2ccco2)n1-c1ccccc1 | inactive |
| Cc1ccc(C(O)P(=O)(OCCC(C)C)c2ccc(N(C)C)cc2)cc1 (stereo unspecified) | inconclusive: 70.8 µM [inhibitor, partial curve, poor fit] |
| CO[C@H]1C=C2CCN(C)[C@H]2C2c3cc4c(cc3C(=O)O[C@@H]21)OCO4 (stereo partly specified) | inconclusive: 63.1 µM [inhibitor, partial curve, poor fit] |
| COC(=O)C1=C(c2cccc3c2S(=O)(=O)c2ccccc2-3)C[C@@H]2CC[C@H]1N2C(=O)N1CCOCC1 | inactive |
| Cc1cccc(N2C(=O)CSC23C(=O)N(CC(=O)Nc2cccc(Cl)c2)c2ccccc23)c1 (stereo unspecified) | inconclusive: 89.1 µM [inhibitor, partial curve, poor fit] |
| CC(C)Oc1ccc(C2C(C#N)=C(N)Oc3c2c(=O)oc2ccccc32)cc1 (stereo unspecified) | inactive |
| O=C1NC(=O)C2(Cc3ccccc3N3CCCC32)C(=O)N1c1ccccc1 (stereo unspecified) | inconclusive: 35.5 µM [inhibitor, partial curve, poor fit] |
| CC(C)C(=O)Nc1ccc(C(=O)NCc2cccnc2)cc1 | inconclusive: 8.91 µM [inhibitor, partial curve, poor fit] |
| ClCCN(CCCl)c1ccc(C=Nc2ccc(/C=C/c3ccnc4ccccc34)cc2)cc1 | inconclusive: 89.1 µM [inhibitor, single point] |
| COc1cc(CN2C(=O)NC(=O)C3(Cc4cc(C)ccc4N(C)C3)C2=O)cc(OC)c1 (stereo unspecified) | inconclusive: 22.4 µM [inhibitor, single point] |
| O=C(N=Nc1c(O)[nH]c(=O)[nH]c1=O)C1COc2ccccc2O1 (stereo unspecified) | inconclusive: 28.2 µM [inhibitor, single point] |
| Cc1cc(/C=C/c2ccnc3ccccc23)ccc1N(CCCl)CCCl | inconclusive: 100 µM [inhibitor, single point] |
| O=C(NCc1ccc(C(F)(F)F)cc1)c1ccc2c(c1)S(=O)(=O)c1ccccc1C2=O | inconclusive: 3.16 µM [inhibitor, full curve, poor fit] |
| O=C1CC(=O)N(c2cccc(Cl)c2)C(=O)N1 | inconclusive: 15.8 µM [inhibitor, full curve, poor fit] |
| CCCCC/C=C\C/C=C\C/C=C\C/C=C\CCCC(=O)NCC(=O)O | active: 2.24 µM |
| CN1C(=O)/C(=C\c2ccc(N3CCCCC3)o2)C(=O)NC1=S | inconclusive: 25.1 µM [inhibitor, partial curve, poor fit] |
| COc1ccc(N2C(=O)CC(N3CCC(n4c(=O)[nH]c5ccccc54)CC3)C2=O)cc1 (stereo unspecified) | inactive |
